{"source": "PubChem BioAssay AID1159584, Peter MacCallum Cancer Centre | 2016", "aim": "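Knock-downs that harm CDH1-null cells more than parental MCF10A cells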 (primary screen)", "cell system": "human MCF10A breast epithelial cells, parental and CDH1-null", "reagent": "siRNA against human genes", "measured": "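ATP luminescence (CellTiter-Glo) viability per line relative to mean mock wells over all plates, and the ratio of CDH1-null to parental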", "scale": "CDH1-null / parental viability ratio: higher = CDH1-null cells survive relatively better than parental", "note": "This is one part, drawn at random, of about 18,000 reagents. Further read-outs or replicates are left out here. Not stated in the record: the amount of reagent, the time to read-out."}
{"target gene": "KCNA2", "CDH1-null / parental viability ratio": 1.16}
{"target gene": "C12orf60", "CDH1-null / parental viability ratio": 1}
{"target gene": "SH2B3", "CDH1-null / parental viability ratio": 0.9}
{"target gene": "CRYBB1", "CDH1-null / parental viability ratio": 1.05}

Sorted by “CDH1-null / parental viability ratio” (highest first): 2 of the entries above.
{"target gene": "CRYBB1", "CDH1-null / parental viability ratio": 1.05}
{"target gene": "SH2B3", "CDH1-null / parental viability ratio": 0.9}

The listing continues.
{"target gene": "TBCK", "CDH1-null / parental viability ratio": 0.99}
{"target gene": "CD81", "CDH1-null / parental viability ratio": 1.12}
{"target gene": "SAR1A", "CDH1-null / parental viability ratio": 1}
{"target gene": "DDIT3", "CDH1-null / parental viability ratio": 1.25}
{"target gene": "SAMD10", "CDH1-null / parental viability ratio": 0.77}
{"target gene": "UTP18", "CDH1-null / parental viability ratio": 1.34}
{"target gene": "TXNL1", "CDH1-null / parental viability ratio": 0.82}
{"target gene": "PPEF2", "CDH1-null / parental viability ratio": 1.67}
{"target gene": "QTRT1", "CDH1-null / parental viability ratio": 1.02}
{"target gene": "DAZ4", "CDH1-null / parental viability ratio": 1.24}
